Data reported in publication PMC7381742.
Read-outs that look alike come from different tables or passages of the source. Results are given in words; binding and its absence hold for the method and conditions named. In cells and extracts the contact can be indirect. Some results given as binding are weak or reduced against the parent protein; the word gives no strength.

The chains behind the UniProt entries cited, without tags or fusion partners.
UniProt Q61656: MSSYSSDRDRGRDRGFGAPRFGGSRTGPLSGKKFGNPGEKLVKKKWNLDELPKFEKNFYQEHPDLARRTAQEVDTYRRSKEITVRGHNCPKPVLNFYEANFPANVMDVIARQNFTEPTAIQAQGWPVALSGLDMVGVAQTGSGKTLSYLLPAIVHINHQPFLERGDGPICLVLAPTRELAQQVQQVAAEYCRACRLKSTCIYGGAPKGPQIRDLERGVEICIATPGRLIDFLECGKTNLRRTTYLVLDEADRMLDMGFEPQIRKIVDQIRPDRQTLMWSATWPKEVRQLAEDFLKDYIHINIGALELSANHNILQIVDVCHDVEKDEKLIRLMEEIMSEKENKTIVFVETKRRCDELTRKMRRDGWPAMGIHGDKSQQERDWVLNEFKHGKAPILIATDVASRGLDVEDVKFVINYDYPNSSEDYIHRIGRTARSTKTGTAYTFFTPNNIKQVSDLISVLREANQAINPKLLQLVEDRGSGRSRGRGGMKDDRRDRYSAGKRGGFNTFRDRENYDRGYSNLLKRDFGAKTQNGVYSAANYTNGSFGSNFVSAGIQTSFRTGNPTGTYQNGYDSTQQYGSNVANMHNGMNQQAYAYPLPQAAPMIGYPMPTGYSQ
UniProt P02340: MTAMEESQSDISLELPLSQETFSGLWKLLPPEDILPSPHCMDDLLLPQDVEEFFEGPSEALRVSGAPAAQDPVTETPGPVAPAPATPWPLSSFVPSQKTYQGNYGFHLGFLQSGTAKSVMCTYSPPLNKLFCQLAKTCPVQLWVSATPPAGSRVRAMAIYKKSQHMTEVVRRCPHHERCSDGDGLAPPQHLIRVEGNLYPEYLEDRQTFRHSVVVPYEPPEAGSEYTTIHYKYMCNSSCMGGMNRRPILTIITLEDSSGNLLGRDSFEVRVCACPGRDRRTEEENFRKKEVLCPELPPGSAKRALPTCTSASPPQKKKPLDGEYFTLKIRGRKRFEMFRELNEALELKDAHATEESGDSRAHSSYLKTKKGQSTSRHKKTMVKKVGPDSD

T1: Drosha (mouse (endogenous in mIMCD3)) (UniProt Q5HZJ0)
T1 sequence: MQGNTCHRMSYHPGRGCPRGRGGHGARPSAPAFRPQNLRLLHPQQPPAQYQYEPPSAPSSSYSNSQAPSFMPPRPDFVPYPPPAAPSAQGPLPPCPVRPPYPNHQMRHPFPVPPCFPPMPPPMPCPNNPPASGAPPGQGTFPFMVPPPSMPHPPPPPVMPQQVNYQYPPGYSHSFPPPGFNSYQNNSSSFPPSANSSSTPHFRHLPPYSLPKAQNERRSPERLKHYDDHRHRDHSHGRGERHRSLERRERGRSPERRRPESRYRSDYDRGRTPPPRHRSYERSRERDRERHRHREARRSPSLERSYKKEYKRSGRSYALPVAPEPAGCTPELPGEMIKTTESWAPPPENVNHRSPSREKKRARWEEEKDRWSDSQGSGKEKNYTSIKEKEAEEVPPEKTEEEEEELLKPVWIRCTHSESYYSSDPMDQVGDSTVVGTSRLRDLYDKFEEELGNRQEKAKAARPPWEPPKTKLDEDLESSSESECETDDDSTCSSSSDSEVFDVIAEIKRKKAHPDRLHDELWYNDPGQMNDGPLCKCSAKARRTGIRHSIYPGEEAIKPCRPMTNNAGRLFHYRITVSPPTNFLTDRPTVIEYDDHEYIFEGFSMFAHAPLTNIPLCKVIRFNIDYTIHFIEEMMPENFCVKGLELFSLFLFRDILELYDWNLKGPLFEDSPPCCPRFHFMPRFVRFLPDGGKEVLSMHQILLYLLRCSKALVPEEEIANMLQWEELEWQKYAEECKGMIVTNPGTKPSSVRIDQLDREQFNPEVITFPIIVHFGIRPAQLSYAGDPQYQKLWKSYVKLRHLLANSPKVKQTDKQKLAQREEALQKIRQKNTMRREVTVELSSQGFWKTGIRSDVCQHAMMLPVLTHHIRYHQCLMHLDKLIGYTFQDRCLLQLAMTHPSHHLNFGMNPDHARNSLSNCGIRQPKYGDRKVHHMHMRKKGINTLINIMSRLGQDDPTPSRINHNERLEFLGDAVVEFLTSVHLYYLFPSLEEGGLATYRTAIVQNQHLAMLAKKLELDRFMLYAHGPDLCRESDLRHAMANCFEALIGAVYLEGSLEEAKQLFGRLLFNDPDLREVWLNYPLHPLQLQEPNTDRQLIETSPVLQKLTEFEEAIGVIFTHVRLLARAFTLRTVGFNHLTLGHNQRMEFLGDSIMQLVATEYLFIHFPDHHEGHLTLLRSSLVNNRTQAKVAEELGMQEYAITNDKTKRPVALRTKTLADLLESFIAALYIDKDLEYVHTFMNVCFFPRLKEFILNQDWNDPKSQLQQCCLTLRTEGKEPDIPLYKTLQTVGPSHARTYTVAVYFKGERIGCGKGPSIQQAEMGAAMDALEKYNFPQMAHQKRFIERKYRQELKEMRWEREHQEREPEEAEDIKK


Experiments:
Assay in all cases: co-IP; endogenous proteins of mIMCD3 cell lysate; anti-p68, anti-Drosha or anti-p53 antibody (isotype IgG as control) coupled to protein A agarose beads, lysate incubated overnight at 4 °C, beads washed with lysis buffer containing an additional 300 mM NaCl, Western blot
[1] = target: T1, Drosha (mouse (endogenous in mIMCD3))
[2] = target: p68 RNA helicase (DEAD-box protein 5) (mouse (endogenous in mIMCD3)) (UniProt Q61656)
[3] = target: p68 RNA helicase (DEAD-box protein 5) (mouse (endogenous in mIMCD3)) (UniProt Q61656); remark: listed apart in the source
[4] = target: p53 (mouse (endogenous in mIMCD3)) (UniProt P02340)

Row | Molecule | binding [1] | binding [2] | binding [3] | binding [4]
1 | p53 (from UniProt P02340 1-390) | binds | binds | – | –
2 | Drosha (protein, UniProt Q5HZJ0 1-1373) MQGNTCHRMSYHPGRGCPRGRGGHGARPSAPAFRPQNLRLLHPQQPPAQYQYEPPSAPSSSYSNSQAPSFMPPRPDFVPYPPPAAPSAQGPLPPCPVRPPYPNHQMRHPFPVPPCFPPMPPPMPCPNNPPASGAPPGQGTFPFMVPPPSMPHPPPPPVMPQQVNYQYPPGYSHSFPPPGFNSYQNNSSSFPPSANSSSTPHFRHLPPYSLPKAQNERRSPERLKHYDDHRHRDHSHGRGERHRSLERRERGRSPERRRPESRYRSDYDRGRTPPPRHRSYERSRERDRERHRHREARRSPSLERSYKKEYKRSGRSYALPVAPEPAGCTPELPGEMIKTTESWAPPPENVNHRSPSREKKRARWEEEKDRWSDSQGSGKEKNYTSIKEKEAEEVPPEKTEEEEEELLKPVWIRCTHSESYYSSDPMDQVGDSTVVGTSRLRDLYDKFEEELGNRQEKAKAARPPWEPPKTKLDEDLESSSESECETDDDSTCSSSSDSEVFDVIAEIKRKKAHPDRLHDELWYNDPGQMNDGPLCKCSAKARRTGIRHSIYPGEEAIKPCRPMTNNAGRLFHYRITVSPPTNFLTDRPTVIEYDDHEYIFEGFSMFAHAPLTNIPLCKVIRFNIDYTIHFIEEMMPENFCVKGLELFSLFLFRDILELYDWNLKGPLFEDSPPCCPRFHFMPRFVRFLPDGGKEVLSMHQILLYLLRCSKALVPEEEIANMLQWEELEWQKYAEECKGMIVTNPGTKPSSVRIDQLDREQFNPEVITFPIIVHFGIRPAQLSYAGDPQYQKLWKSYVKLRHLLANSPKVKQTDKQKLAQREEALQKIRQKNTMRREVTVELSSQGFWKTGIRSDVCQHAMMLPVLTHHIRYHQCLMHLDKLIGYTFQDRCLLQLAMTHPSHHLNFGMNPDHARNSLSNCGIRQPKYGDRKVHHMHMRKKGINTLINIMSRLGQDDPTPSRINHNERLEFLGDAVVEFLTSVHLYYLFPSLEEGGLATYRTAIVQNQHLAMLAKKLELDRFMLYAHGPDLCRESDLRHAMANCFEALIGAVYLEGSLEEAKQLFGRLLFNDPDLREVWLNYPLHPLQLQEPNTDRQLIETSPVLQKLTEFEEAIGVIFTHVRLLARAFTLRTVGFNHLTLGHNQRMEFLGDSIMQLVATEYLFIHFPDHHEGHLTLLRSSLVNNRTQAKVAEELGMQEYAITNDKTKRPVALRTKTLADLLESFIAALYIDKDLEYVHTFMNVCFFPRLKEFILNQDWNDPKSQLQQCCLTLRTEGKEPDIPLYKTLQTVGPSHARTYTVAVYFKGERIGCGKGPSIQQAEMGAAMDALEKYNFPQMAHQKRFIERKYRQELKEMRWEREHQEREPEEAEDIKK | – | – | binds | binds
